The values below come from article PMC11564991.

The assay addresses T1, Cell Migration Inducing Hyaluronidase 1 (CEMIP) (human (endogenous in keloid fibroblasts)) (UniProt Q8WUJ3).
T1 sequence: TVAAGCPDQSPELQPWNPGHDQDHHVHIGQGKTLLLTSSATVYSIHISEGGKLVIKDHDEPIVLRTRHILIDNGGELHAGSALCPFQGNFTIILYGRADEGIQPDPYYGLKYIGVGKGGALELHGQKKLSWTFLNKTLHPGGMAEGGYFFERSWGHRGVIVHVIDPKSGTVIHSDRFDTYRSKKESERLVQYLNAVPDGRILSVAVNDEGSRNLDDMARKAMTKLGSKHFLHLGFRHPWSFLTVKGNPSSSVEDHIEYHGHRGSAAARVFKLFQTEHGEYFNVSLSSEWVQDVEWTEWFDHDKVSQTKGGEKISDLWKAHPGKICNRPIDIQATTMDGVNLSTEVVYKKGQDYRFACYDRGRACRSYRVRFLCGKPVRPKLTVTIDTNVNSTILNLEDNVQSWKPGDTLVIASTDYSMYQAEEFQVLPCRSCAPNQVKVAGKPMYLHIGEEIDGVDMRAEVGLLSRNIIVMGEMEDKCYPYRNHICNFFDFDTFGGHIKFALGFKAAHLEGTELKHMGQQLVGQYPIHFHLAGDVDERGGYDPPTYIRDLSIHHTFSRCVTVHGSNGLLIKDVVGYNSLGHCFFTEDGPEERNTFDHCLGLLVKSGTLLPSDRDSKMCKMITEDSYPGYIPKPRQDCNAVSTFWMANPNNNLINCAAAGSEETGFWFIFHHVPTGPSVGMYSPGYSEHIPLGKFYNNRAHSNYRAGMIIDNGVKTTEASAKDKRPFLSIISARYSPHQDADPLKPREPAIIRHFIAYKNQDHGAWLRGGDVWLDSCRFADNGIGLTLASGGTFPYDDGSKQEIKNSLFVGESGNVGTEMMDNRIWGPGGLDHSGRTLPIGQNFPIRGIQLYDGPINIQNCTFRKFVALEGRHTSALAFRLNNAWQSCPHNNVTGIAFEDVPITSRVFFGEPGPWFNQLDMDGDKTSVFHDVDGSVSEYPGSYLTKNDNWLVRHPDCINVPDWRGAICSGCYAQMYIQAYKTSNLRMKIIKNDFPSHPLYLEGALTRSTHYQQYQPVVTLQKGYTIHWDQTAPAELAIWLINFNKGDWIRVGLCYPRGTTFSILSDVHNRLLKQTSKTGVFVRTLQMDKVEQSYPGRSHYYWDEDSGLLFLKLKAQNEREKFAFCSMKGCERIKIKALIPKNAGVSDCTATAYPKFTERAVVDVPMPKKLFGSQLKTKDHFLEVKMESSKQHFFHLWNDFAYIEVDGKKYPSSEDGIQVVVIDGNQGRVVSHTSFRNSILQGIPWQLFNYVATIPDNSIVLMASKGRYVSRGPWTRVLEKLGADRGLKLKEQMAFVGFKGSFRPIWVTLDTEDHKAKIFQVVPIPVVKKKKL
Briefly: co-IP; lysates of keloid fibroblasts (150 mM NaCl, 10 mM HEPES pH 7.4, 1% NP-40) incubated with CEMIP or SPARC antibody and protein G agarose (or HA affinity agarose) overnight at 4 °C; western blot; also done after shRNA silencing of CEMIP. Background: In western blotting, separated proteins are transferred to a membrane and probed.

Results are given in words; binding and its absence hold for the method and conditions named. In cells and extracts the contact can be indirect. Some entries that bind do so weakly or less than the wild type.

B1: Secreted Protein Acidic and Rich in Cysteine (SPARC) (protein, UniProt P09486 18-303)
chain: APQQEALPDETEVVEETVAEVTEVSVGANPVQVEVGEFDDGAEETEEEVVAENPCQNHHCKHGKVCELDENNTPMCVCQDPTSCPAPIGEFEKVCSNDNKTFDSSCHFFATKCTLEGTKKGHKLHLDYIGPCKYIPPCLDSELTEFPLRMRDWLKNVLVTLYERDEDNNLLTEKQKLRVKKIHENEKRLEAGDHPVELLARDFEKNYNMYIFPVHWQFGQLDQHPIDGYLSHTELAPLRAPLIPMEHCTTRFFETCDLDNDKYIALDEWAGCFGIKQKDIDKDLVI
Regarding B1, the binding entry is listed as “binds”.
